Results from PubChem BioAssay AID743266 (National Center for Advancing Translational Sciences (NCATS), 2014).
The whole screen tested about 410,000 compounds, of which about 310 (0.076%) were called active. Inconclusive results, whose numbers are uncertain, are shown with a selection of clear calls. Calls follow the shape of the dose curve; as a rule, active = well fitted activation curve with a large enough effect; inconclusive = small, poorly fitted or top-dose-only effect, or another doubt; inactive = no such curve, though single readings can be large or run the other way. Potencies of inconclusive entries are doubtful fits and often do not repeat.

The chains behind the UniProt entries cited, without tags or fusion partners. Where a name states a change or a piece, a line headed by the entry shows the natural chain unless it says otherwise.
UniProt Q03431: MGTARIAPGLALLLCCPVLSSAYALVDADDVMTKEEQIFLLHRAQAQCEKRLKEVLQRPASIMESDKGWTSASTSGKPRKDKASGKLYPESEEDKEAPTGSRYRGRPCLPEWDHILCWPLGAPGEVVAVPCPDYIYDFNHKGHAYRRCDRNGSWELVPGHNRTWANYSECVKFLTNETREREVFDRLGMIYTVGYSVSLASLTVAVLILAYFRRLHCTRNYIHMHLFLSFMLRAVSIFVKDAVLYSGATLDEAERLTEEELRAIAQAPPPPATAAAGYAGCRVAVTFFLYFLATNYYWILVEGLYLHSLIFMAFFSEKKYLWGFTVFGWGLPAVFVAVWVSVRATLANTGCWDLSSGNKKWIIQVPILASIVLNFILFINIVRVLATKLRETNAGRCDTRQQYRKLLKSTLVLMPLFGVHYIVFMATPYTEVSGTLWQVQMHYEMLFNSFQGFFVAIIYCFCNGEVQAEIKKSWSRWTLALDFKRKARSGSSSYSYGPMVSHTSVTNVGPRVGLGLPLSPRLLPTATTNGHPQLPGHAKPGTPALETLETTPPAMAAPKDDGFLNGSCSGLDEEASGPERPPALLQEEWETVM

Molecular target: Parathyroid hormone/parathyroid hormone-related peptide receptor (Homo sapiens) (UniProt Q03431)
Assay: qHTS for PTHR1 Agonists: Primary Screen; also: nearly all actives have a fitted effect of over 55% in size
Details: HEK293 GP2 PTHR1 cells, GloSensor cAMP luminescence, 1 h; activation: at 115 µM (top of the series) unless noted; series mostly up to 115 µM
In short: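 HEK-293-derived GP2 cells expressing PTHR1 and a GloSensor cAMP reporter, 3,000/well, plated overnight, given luciferin plus IBMX (each 0.5 mM as added) for 1 h at 37 °C, then compound for 1 h at 37 °C. Luminescence was read after 15 min at room temperature.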
Potency is read from the fitted curve at half-maximal effect.

Potency, inactive:
O=C(Nc1onc2c1CCCC2)c1ccccc1
CC(C)N(Cc1nc(-c2ccc(Cl)cc2)no1)C(=O)C(c1ccccc1)c1ccccc1
COc1cc(OC)c(OC)cc1/C=C1\Oc2cc(OS(C)(=O)=O)ccc2C1=O
CC(C)CCNC(=O)CN1C(=O)CCn2nc(-c3cn(C)c4ccccc34)cc21
CCOc1ccc(S(=O)(=O)NCCc2csc(-c3ccc(Cl)cc3)n2)cc1
COc1ccc(NC2=Nc3ccccc3CC2)cc1
Cc1ccc(-c2cc(NC(=O)c3ccccc3Cl)on2)cc1
COc1ccc(N2CCN(C(=O)CSc3nnc(-c4cccnc4)n3-c3ccccc3)CC2)cc1
CC(C)c1ccccc1NC(=O)CNCCOc1ccccc1F
O=C(O)Cn1nnnc1SCC(=O)Nc1ccccc1F
COC(=O)C1=[N+]([O-])OC(C(=O)OC)C1c1c[nH]c2ccccc12 (centres undefined)
CS/C(N)=N/C(=S)Nc1cccc(Cl)c1
CCc1ccccc1Nc1nn2c(=O)c3ccc(C(=O)NC(C)c4ccccc4)cc3nc2s1 (centres undefined)
Cc1ccc(S(=O)(=O)N2CCCCC2)cc1NC(=O)CCCOc1ccccc1
CC(C)(C)C1CCc2c(sc3nc(-c4cc5cc(Br)ccc5oc4=O)[nH]c(=O)c23)C1 (centres undefined)
CCOC(=O)/C(C#N)=C\C=C1C=CN(C)C=C1
CC(=O)/C(=C/c1ccccc1)C(=O)Nc1ccccc1C
COC(=O)c1ccc(N)c(N=CC2=C(O)CC(C)(C)CC2=O)c1
COc1cc(/C=c2\sc3n(c2=O)CCCN=3)ccc1O
O=C(CN1CSCC1=O)N1CCN(S(=O)(=O)c2ccc(Cl)cc2)CC1
Cc1ccc(S(=O)(=O)Oc2cccc([N+](=O)[O-])c2)cc1
O=C(c1ccc(Cl)cc1)N1CCN(c2ccnc3cc(Cl)ccc23)CC1
CCOC(=O)c1ccc(NC(=O)c2c(C)nn(-c3ccc(F)cc3)c2-n2cccc2)cc1
CC1CCC(C(C)C)C(OC(=O)Cn2c(-c3ccc(Br)cc3)[n+](C)c3ccccc32)C1 (centres undefined)
CCOC(=O)c1cc(NC(=O)c2cccnc2)ccc1N1CCOCC1
COc1cc(OC)c(C2Nc3c(C)cccc3-c3cc(C)nn32)cc1OC (centres undefined)
CCOC(=O)C1CCCN(CCC(=O)Nc2ccc(Br)cc2)C1 (centres undefined)

Retrieved by structure from above (2):
Potency, inactive:
CCOc1ccc(S(=O)(=O)NCCc2csc(-c3ccc(Cl)cc3)n2)cc1
COC(=O)c1ccc(N)c(N=CC2=C(O)CC(C)(C)CC2=O)c1

By substructure, the compounds so far containing an aryl thioether with sulfur outside any ring (two)
Potency, inactive:
COc1ccc(N2CCN(C(=O)CSc3nnc(-c4cccnc4)n3-c3ccccc3)CC2)cc1
O=C(O)Cn1nnnc1SCC(=O)Nc1ccccc1F

Next part:

Potency, inconclusive:
CC(=O)N1CC2([N+](=O)[O-])CN(C(C)=O)CC([N+](=O)[O-])(C1)C2(C)C 56.2 µM [activator, partial curve, poor fit]
CCN(CC)CCn1c(=N)n(CC(O)c2ccc(OC)c(OC)c2)c2ccccc21 (centres undefined) 89.1 µM [activator, single point]
CCn1c2ccccc2c2cc(NC(=O)c3ccco3)ccc21 39.8 µM [activator, single point]
Cc1nnc(N(C)C(=O)c2cnccn2)s1 20 µM [activator, single point]
Cc1cc(=O)[nH]c2nnc(SCc3ccccc3F)n12 126 µM [activator, single point]
CC(=O)Nc1ccc(NC(=O)C2Cc3c(-c4cccc(NC(C)=O)c4)ccnc3O2)cc1 (centres undefined) 10 µM [activator, partial curve, poor fit]
OCCN1CCN(CC(O)COCCOc2ccc(Br)cc2)CC1 (centres undefined) 126 µM [activator, single point]
COc1cccc(Cn2c(C)c(CNCc3cccc(C)c3)c(C(=O)O)c2C)c1 15.8 µM [activator, single point]
CS(=O)(=O)N(CC(=O)N1CCN(c2ccc(F)cc2)CC1)C1CCCCC1 35.5 µM [activator, single point]
O=C(OCCNC(=O)c1ccc2ccccc2n1)c1ccc(F)cc1 20 µM [activator, partial curve, poor fit]
O=C(Nc1ccccc1F)N1CCc2ccccc2C1 35.5 µM [activator, partial curve, poor fit]
CNC(=S)NNC(=O)c1cccc(N(C)C)c1 7.94 µM [activator, full curve, poor fit]
COc1ccccc1-n1cc(CN2CCN(CC=C(C)C)C(CCO)C2)cn1 (centres undefined) 28.2 µM [activator, partial curve, poor fit]
COc1ccc(CNC(=O)c2cc3c(-c4ccc(Cl)cc4)nn(C)c3s2)cc1 79.4 µM [activator, partial curve, poor fit]
CC(=O)OCC1=C(C(=O)O)N2C(=O)C(NC(=O)c3ccc(F)cc3)C2SC1 (centres undefined) 126 µM [activator, single point]
CC(=O)c1ccc(NC(=O)C(Cc2ccccc2)n2cccc2)cc1 (centres undefined) 141 µM [activator, single point]
N#Cc1cccc(NC(=O)CCNS(=O)(=O)c2ccc3[nH]c(=O)oc3c2)c1 20 µM [activator, partial curve, poor fit]
CCc1c(C)sc(NC(=O)CSc2nc3c(c(C(F)(F)F)n2)CCc2ccccc2-3)c1C#N 39.8 µM [activator, single point]
CCOC(=O)c1c(C)n(S(=O)(=O)c2ccc(C)cc2C)c2ccc(NS(=O)(=O)c3ccc(C)cc3C)cc12 20 µM [activator, full curve, poor fit]
CC1Cc2ccccc2N1C(=O)c1ccc2snnc2c1 (centres undefined) 14.1 µM [activator, partial curve]
CCc1nnc(NC(=O)[C@@H](NC(=O)c2cccc(S(=O)(=O)N3CCOCC3)c2)C(C)C)s1 4.47 µM [activator, partial curve, poor fit]
O=C1CN(C(=S)Nc2ccccc2Cl)CCN1 15.8 µM [activator, partial curve]
N#CC(=C=[N-])c1nc2ccccc2nc1-[n+]1cccc(NC(=O)c2cccs2)c1 126 µM [activator, single point]
C=CCn1c(SCC(=O)Nc2cccc(S(N)(=O)=O)c2)nc2sc(C)c(C)c2c1=O 17.8 µM [activator, partial curve]
OCc1cc(C(O)CNCCCCCCOCCCCc2ccccc2)ccc1O (centres undefined) 2.24 µM [activator, full curve]
COc1ccc(/C=C/C(=O)Nc2nc3n(n2)C(c2ccccc2)C=C(c2ccc(Cl)cc2)N3)cc1 (centres undefined) 141 µM [activator, single point]
COc1cc2c(cc1OC)C(c1ccncc1)CC(=O)N2 (centres undefined) 44.7 µM [activator, partial curve]
COc1ccc(OCc2nc3c4c(-c5ccccc5)c(-c5ccccc5)oc4ncn3n2)cc1 50.1 µM [activator, partial curve, poor fit]
COc1ccccc1C(=O)NNC(=O)CCCN1C(=O)/C(=C/c2cccs2)SC1=S 126 µM [activator, single point]
Cc1c(C(=O)N2CCN(C3CCS(=O)(=O)C3)CC2)oc2c(F)cccc12 (centres undefined) 79.4 µM [activator, partial curve, poor fit]
CCOC(=O)[C@]12CCCC=C1N(Cc1ccc3c(c1)OCO3)C(=O)[C@H](CC(=O)N1CCSCC1)C2 112 µM [activator, single point]

activation, inconclusive:
Cc1ccc(C)c(S(=O)(=O)n2cnc3ccccc32)c1 34.7% [activator] [at 57.5 µM]
CSc1ccc(S(=O)(=O)N2CCC(C(=O)NCCCn3ccnc3)CC2)cc1 45.1% [activator]
O=C(CSc1ccccc1F)OCC(=O)N1CCN(C(=O)c2ccco2)CC1 38.5% [activator]
Cc1cc(NC(=O)Cn2nc3c(cc2=O)CCCC3)ccc1Br -46.3% [activator] [at 57.5 µM]
COCCCNC(=S)Nc1ccc(OC(F)F)cc1C 36.8% [activator]
Cc1cc(C)n(C(C)CC(=O)NCc2ccccc2C)n1 (centres undefined) 46.8% [activator]
COc1cc2nc(CCc3ccccc3)oc(=O)c2cc1OC 48.1% [activator]
Cc1noc(C)c1COc1ccc(CC(=O)NCc2ccccc2)cc1 81.6% [activator]
COc1ccc2nc(SCC(=O)NC(C)C)[nH]c2c1 19.7% [activator] [at 57.5 µM]
CSc1nc(C)c2c(n1)N(c1ccc(O)cc1)CC2 37% [activator]
COc1ccc(S(=O)(=O)N2CCc3cc(OC)c(OC)cc3C2)cc1 12.6% [activator]
Cn1cccc1C(=O)NCC(c1ccc(F)cc1)N1CCOCC1 (centres undefined) 41.7% [activator]
OCCN1CCN(Cc2cc(Br)cc(Br)c2O)CC1 -44.8% [activator] [at 57.5 µM]
Cc1ccc(C(=O)NN=C2CCCCCC2)s1 39.7% [activator]
O=C(Nc1ccc(Cl)cc1N1CCOCC1)C1CC1 17.4% [activator]
Cc1ccc(S(=O)(=O)N2CCOC2CNC(=O)C(=O)NCCCN2CCOCC2)cc1 (centres undefined) 23.2% [activator]
